Patent publication US20060099643A1, “Method for determining the regulation of xenobiotic removal” (priority 2002, published 2006)
These are yes or no findings as the source states them, for the method shown. Some entries that bind do so weakly or less than the wild type.

By UniProt entry, the sequences of proteins in these tests, tags left out. Where a name states a change or a piece, a line headed by the entry shows the natural chain unless it says otherwise.
UniProt Q15788: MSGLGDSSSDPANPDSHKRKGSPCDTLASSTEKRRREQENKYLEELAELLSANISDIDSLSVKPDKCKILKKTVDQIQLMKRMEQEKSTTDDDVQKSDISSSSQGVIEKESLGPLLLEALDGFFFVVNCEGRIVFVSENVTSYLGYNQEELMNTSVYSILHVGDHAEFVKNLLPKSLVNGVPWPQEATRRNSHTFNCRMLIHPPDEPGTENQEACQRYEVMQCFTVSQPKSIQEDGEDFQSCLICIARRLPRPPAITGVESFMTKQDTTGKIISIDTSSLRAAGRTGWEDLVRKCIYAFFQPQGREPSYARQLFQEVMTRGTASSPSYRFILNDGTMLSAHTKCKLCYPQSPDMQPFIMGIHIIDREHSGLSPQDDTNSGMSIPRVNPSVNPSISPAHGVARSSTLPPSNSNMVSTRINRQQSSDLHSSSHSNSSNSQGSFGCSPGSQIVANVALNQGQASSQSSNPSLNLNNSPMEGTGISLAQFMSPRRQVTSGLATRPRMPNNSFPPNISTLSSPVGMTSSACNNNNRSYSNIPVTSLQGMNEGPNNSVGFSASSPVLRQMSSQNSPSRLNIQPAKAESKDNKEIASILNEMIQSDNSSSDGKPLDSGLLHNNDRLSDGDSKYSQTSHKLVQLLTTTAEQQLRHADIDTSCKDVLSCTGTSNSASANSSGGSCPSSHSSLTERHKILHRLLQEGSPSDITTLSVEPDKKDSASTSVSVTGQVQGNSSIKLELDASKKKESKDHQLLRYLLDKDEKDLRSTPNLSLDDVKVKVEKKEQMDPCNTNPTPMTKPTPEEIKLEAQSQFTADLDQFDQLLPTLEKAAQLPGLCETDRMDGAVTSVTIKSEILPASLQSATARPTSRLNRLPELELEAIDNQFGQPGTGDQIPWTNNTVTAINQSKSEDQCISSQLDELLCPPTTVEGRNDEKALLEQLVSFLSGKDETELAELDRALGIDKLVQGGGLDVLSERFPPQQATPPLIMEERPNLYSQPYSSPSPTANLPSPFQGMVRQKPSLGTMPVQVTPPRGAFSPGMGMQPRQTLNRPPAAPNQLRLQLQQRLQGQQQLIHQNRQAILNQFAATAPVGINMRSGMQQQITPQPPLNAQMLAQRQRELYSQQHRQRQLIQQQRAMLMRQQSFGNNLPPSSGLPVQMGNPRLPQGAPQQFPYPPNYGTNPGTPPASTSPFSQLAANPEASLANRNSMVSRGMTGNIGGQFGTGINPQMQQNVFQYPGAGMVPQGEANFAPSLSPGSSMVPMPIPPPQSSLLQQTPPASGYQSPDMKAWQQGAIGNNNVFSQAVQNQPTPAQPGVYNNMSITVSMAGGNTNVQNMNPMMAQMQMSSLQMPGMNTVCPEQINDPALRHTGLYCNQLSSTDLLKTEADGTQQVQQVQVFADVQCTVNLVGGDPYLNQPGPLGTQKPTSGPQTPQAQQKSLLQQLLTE

Target: T1, SXR (UniProt O75469 130-434, limits assumed)
T1 construct: also called steroid and xenobiotic receptor; steroid X receptor
T1 sequence (looked up): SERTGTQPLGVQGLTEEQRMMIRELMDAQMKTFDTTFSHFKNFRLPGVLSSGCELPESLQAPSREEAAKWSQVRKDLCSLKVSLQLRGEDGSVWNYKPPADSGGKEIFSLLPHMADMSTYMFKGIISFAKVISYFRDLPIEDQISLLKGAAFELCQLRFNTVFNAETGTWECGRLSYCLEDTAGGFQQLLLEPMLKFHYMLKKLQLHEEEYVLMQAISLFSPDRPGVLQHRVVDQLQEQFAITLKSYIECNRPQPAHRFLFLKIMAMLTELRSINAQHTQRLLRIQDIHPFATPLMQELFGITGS
Assay: Thermofluor thermal shift; SXR with and without ligands

B1: co-activator peptide SRC1-NR2 (peptide, UniProt Q15788 683-701, looked up)
peptide: LTERHKILHRLLQEGSPSD
notes: Peptide fragment of SRC-1
  binding: binds
